Laboratory results: PMC7175094
No constants are given. Whether binding was seen depends on the method and setting.

Chains of the proteins cited; added tags and fusions are not shown. Residues count along the entry.
UniProt P02768, residues 25-609: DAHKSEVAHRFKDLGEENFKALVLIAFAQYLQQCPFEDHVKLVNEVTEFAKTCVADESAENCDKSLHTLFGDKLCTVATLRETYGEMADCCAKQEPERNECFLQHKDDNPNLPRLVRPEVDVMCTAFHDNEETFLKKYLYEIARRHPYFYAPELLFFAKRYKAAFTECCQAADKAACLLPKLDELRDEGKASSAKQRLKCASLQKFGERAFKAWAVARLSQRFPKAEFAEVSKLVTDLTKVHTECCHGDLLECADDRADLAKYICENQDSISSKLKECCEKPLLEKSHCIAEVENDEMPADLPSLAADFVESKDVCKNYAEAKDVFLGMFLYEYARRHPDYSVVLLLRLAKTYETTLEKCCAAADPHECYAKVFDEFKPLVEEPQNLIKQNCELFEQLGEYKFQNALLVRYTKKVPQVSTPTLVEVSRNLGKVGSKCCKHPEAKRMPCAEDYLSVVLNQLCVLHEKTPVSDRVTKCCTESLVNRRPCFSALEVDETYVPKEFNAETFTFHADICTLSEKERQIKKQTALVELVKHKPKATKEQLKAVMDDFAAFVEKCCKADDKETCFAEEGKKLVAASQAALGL

Molecular target: Human serum albumin (human) (UniProt P02768)
Assay: SEC; both purified

B1: Csa2 (protein, UniProt Q5A0X8 21-147)
chain: APAVTAAPAPAADNPYTIYPPVPKTASINGFADRIYDQIPKCAQECVKQSTSSTPCPYWDTGCLCVIPNFTGAVGNCVASKCRGADVTNFRKLAVGACAAAGVWDPYWIIPASVSSALDAAATATGN
For B1, the binding was “no binding”.
